Results are given in words; binding and its absence hold for the method and conditions named.

Chains of the proteins cited; added tags and fusions are not shown. Residues count along the entry.
UniProt Q07954, residues 20-4544: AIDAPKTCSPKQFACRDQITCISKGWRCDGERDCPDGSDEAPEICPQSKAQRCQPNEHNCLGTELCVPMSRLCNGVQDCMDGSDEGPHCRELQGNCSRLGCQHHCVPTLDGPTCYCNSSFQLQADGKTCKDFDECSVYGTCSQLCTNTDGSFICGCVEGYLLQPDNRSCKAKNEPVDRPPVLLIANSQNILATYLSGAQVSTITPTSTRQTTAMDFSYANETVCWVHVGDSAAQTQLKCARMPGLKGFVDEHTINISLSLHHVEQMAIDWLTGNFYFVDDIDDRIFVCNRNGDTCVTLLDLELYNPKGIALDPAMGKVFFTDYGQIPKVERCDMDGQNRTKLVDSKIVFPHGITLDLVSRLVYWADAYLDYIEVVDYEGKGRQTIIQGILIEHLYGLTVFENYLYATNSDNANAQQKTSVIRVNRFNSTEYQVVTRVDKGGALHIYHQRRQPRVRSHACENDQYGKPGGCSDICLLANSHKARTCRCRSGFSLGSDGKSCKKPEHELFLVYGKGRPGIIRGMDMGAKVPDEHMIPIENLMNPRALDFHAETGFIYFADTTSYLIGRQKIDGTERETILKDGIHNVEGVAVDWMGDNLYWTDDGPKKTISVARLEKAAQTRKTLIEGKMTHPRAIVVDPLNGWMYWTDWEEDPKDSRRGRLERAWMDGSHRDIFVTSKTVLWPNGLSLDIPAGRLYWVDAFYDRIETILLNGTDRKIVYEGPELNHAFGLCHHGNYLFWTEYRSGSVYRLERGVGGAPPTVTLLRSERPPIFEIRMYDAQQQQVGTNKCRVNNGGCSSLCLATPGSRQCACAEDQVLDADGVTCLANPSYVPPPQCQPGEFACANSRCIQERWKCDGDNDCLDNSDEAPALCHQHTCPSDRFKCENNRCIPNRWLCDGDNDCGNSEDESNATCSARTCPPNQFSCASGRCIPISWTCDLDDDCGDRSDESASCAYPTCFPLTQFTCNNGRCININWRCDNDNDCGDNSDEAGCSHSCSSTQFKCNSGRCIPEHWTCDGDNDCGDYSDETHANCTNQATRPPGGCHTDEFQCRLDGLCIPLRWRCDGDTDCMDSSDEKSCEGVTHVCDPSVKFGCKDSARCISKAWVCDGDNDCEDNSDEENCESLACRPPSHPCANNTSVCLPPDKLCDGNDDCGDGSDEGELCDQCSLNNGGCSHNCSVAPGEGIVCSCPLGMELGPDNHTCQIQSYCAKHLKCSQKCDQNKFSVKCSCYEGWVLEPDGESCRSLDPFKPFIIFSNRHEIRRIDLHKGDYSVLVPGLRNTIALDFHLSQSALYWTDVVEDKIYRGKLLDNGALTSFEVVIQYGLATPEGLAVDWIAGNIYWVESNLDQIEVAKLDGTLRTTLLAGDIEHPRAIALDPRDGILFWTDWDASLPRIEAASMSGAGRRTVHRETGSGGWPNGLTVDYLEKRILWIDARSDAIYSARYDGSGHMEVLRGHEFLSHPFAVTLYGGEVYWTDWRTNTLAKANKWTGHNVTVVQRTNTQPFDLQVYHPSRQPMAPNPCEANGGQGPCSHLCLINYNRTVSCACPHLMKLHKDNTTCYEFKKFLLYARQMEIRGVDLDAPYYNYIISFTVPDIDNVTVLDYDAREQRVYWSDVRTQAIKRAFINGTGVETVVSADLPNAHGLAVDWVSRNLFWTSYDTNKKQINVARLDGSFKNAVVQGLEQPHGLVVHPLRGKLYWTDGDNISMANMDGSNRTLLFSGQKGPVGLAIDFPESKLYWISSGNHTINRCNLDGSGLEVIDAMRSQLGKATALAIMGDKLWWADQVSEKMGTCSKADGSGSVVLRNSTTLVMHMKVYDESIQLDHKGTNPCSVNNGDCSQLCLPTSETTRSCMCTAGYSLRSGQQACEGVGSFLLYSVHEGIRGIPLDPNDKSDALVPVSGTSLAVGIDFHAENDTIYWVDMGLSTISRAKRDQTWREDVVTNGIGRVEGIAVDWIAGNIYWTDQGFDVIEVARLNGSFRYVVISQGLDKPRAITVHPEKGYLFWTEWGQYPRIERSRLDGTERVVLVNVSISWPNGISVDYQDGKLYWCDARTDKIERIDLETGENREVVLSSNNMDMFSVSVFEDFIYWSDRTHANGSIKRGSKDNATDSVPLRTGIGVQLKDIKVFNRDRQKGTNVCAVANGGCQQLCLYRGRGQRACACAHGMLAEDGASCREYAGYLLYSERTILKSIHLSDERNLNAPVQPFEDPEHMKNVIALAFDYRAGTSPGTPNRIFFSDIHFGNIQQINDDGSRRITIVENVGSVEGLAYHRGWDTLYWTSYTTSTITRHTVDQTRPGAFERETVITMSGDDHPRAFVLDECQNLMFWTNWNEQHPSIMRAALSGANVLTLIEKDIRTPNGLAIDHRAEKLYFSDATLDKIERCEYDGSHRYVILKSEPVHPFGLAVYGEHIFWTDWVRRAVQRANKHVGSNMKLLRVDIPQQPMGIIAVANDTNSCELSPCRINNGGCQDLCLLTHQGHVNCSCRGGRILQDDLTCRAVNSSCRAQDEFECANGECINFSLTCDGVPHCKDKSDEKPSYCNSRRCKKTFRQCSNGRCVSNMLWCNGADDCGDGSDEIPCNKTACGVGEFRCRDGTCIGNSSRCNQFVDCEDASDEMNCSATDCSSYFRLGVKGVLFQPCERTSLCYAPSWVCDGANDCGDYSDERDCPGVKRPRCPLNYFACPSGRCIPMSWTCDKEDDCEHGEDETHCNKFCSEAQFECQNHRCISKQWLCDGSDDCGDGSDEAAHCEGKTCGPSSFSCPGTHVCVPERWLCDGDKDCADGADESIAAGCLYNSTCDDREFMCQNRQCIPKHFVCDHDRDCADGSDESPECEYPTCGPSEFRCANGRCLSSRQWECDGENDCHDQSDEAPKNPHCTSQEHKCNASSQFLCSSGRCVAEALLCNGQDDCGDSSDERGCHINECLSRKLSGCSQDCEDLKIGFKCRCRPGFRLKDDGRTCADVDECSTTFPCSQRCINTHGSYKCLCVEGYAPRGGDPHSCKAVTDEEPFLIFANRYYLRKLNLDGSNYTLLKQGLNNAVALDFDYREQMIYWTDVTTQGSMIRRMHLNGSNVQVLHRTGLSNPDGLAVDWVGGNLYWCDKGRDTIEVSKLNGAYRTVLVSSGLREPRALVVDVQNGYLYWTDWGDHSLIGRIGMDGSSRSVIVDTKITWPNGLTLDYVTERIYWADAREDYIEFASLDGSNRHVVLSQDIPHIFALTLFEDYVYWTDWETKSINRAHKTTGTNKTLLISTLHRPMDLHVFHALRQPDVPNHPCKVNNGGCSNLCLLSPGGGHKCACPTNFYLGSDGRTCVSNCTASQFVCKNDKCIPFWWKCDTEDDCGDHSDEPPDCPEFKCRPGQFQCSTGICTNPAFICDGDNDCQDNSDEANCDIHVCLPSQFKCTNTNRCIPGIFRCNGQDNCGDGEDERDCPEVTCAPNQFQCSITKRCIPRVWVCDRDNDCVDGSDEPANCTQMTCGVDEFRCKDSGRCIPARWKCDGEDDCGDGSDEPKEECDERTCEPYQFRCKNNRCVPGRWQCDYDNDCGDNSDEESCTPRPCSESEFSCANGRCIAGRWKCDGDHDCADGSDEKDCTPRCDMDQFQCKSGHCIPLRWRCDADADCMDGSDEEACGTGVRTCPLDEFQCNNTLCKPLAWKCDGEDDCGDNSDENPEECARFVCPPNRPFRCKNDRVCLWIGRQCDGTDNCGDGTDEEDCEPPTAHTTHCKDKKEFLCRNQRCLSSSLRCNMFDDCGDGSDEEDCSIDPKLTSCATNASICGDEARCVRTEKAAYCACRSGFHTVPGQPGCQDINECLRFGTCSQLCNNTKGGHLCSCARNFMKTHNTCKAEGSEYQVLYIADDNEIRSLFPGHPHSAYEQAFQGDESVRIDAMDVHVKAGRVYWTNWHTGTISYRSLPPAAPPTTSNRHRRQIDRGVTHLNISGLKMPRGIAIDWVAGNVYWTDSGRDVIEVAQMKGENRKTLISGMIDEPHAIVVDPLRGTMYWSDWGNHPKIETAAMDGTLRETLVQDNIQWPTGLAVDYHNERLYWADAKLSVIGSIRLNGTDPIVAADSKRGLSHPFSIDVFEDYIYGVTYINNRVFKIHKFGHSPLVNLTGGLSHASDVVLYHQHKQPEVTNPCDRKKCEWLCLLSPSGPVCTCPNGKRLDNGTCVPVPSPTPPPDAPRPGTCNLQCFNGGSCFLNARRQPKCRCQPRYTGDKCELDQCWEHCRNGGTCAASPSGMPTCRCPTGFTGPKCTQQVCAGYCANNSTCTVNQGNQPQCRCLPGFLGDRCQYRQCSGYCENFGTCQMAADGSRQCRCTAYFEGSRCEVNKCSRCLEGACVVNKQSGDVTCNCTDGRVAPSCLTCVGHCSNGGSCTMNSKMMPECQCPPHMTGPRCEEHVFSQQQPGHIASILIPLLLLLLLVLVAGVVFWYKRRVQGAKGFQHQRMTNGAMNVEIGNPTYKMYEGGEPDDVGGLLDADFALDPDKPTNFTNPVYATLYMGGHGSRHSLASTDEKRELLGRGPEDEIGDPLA

For this test, the target named is low-density lipoprotein (LDL) receptor-related protein 1 (LRP1), purified human full-length (human) (UniProt Q07954). Description: ELISA; solid-phase binding assay; human full-length LRP1 (10 nmol/L) coated overnight at 4 °C onto microtiter plates in 50 mmol/L Tris-HCl (pH 7.5)/150 mmol/L NaCl/10 mmol/L CaCl2; 0-200 nmol/L Wnt in 5% BSA blocking solution, 30 min at RT; bound Wnt detected with a specific antibody; signal of wells without LRP1 subtracted; apparent KD (K_D,app), extrapolated from a one-phase decay nonlinear fit; both purified.

B1: Wnt3a (ligand, UniProt P56704 19-352, looked up)
chain: SYPIWWSLAVGPQYSSLGSQPILCASIPGLVPKQLRFCRNYVEIMPSVAEGIKIGIQECQHQFRGRRWNCTTVHDSLAIFGPVLDKATRESAFVHAIASAGVAFAVTRSCAEGTAAICGCSSRHQGSPGKGWKWGGCSEDIEFGGMVSREFADARENRPDARSAMNRHNNEAGRQAIASHMHLKCKCHGLSGSCEVKTCWWSQPDFRAIGDFLKDKYDSASEMVVEKHRESRGWVETLRPRYTYFKVPTERDLVYYEASPNFCEPNPETGSFGTRDRTCNVSSHGIDGCDLLCCGRGHNARAERRREKCRCVFHWCCYVSCQECTRVYDVHTCK
notes: Wnt3a, purified protein; also called purified Wnt3a; source: purified
As to B1, the binding result is recorded as “no binding (tested: >200 nmol/L)”.
